Values from PubChem BioAssay AID1259254 (NCATS, 2017)
This is an unselected part of about 59,000 reagents. Over the whole deposit, about 1,550 (2.6%) got an active call. 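G2 share is only a proxy for re-replication; each gene was hit by three separate siRNAs, and active genes were retested.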 Raw values vary from plate to plate and are shown uncorrected. The numbers tell different reagents against one gene apart. Not given: the amount of reagent.

Aim: 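Genome-wide screen for genes that prevent DNA re-replication in cancer cells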 (primary screen)
Cell system: human HCT116 colorectal cancer cells
Reagent: single siRNA against human genes
Time to read-out: 3 days
Measurement: 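Nuclei stained with Hoechst and imaged; cell-cycle phase assigned by DNA content; G2 share scaled per plate, non-targeting siRNA 0%, GMNN siRNA 100%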
Scale: G2 robust z-score and G2 cells, % of GMNN control: higher = more G2 cells, more excess DNA replication; raw share of cells in G2: higher = larger share of cells with G2 DNA content
Hit rule: 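Active siRNAs have a G2 robust z of 5 or more median absolute deviations over the median, which in these data means about 38% or higher of GMNN control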

gene	reagent no.	G2 robust z-score	G2 cells, % of GMNN control	raw share of cells in G2 (%)	activity call
CFAP221	1	0.0848	3.56	4.88	inactive
CFAP221	2	0.463	6.22	5.05	inactive
CFAP221	3	0.616	7.3	5.07	inactive
UBXN6	1	0.375	5.61	6.77	inactive
UBXN6	2	-0.429	-0.0488	4.28	inactive
UBXN6	3	1.57	14	6.21	inactive
RNLS	1	-0.724	-2.13	3.71	inactive
RNLS	2	0.464	6.23	6.72	inactive
RNLS	3	0.764	8.34	5.8	inactive
TMEM134	1	-0.667	-1.72	1.91	inactive
TMEM134	2	4.01	31.2	17.4	inactive
TMEM134	3	0.593	7.14	7.42	inactive
MCM10	1	4.19	32.4	17	inactive
MCM10	2	3.7	29	16.2	inactive
MCM10	3	1.54	13.8	7.53	inactive
MREG	1	-0.693	-1.91	2.53	inactive
MREG	2	-0.706	-2	3.75	inactive
MREG	3	-0.833	-2.9	2.94	inactive
CCNB3	1	-0.66	-1.68	3.85	inactive
CCNB3	2	3.97	30.9	18.2	inactive
CCNB3	3	-0.206	1.52	6.38	inactive
SPINK13	1	-0.707	-2.01	3.16	inactive
SPINK13	2	-0.446	-0.17	2.86	inactive
SPINK13	3	0.149	4.02	4.47	inactive
RASD1	1	-1.23	-5.72	2.13	inactive
RASD1	2	-1.4	-6.86	1.17	inactive
RASD1	3	1.68	14.8	12.7	inactive
OR5K1	1	-0.421	0.0068	4.42	inactive
OR5K1	2	0.107	3.72	5.55	inactive
OR5K1	3	-0.132	2.04	4.01	inactive

4 entries from above in another layout:
TMEM134 #1
- G2 robust z-score: -0.667
- G2 cells, % of GMNN control: -1.72
- raw share of cells in G2 (%): 1.91
- activity call: inactive

TMEM134 #2
- G2 robust z-score: 4.01
- G2 cells, % of GMNN control: 31.2
- raw share of cells in G2 (%): 17.4
- activity call: inactive

TMEM134 #3
- G2 robust z-score: 0.593
- G2 cells, % of GMNN control: 7.14
- raw share of cells in G2 (%): 7.42
- activity call: inactive

MCM10 #1
- G2 robust z-score: 4.19
- G2 cells, % of GMNN control: 32.4
- raw share of cells in G2 (%): 17
- activity call: inactive
